Experimental data published in article PMC7928066.
Results are given in words; binding and its absence hold for the method and conditions named. Binding seen in cells or lysates may run through a third protein. Some binding calls cover weakened binding; strength is not graded here.

Chains of the proteins cited; added tags and fusions are not shown.
UniProt P61586: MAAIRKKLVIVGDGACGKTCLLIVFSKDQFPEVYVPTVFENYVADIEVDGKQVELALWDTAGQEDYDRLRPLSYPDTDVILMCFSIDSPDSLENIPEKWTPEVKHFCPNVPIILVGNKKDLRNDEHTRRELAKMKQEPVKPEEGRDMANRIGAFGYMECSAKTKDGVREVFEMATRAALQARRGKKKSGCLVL

Target: T1, neuropeptide Y receptor Y5 (human (endogenous in SK-N-AS)) (UniProt Q15761)
T1 sequence: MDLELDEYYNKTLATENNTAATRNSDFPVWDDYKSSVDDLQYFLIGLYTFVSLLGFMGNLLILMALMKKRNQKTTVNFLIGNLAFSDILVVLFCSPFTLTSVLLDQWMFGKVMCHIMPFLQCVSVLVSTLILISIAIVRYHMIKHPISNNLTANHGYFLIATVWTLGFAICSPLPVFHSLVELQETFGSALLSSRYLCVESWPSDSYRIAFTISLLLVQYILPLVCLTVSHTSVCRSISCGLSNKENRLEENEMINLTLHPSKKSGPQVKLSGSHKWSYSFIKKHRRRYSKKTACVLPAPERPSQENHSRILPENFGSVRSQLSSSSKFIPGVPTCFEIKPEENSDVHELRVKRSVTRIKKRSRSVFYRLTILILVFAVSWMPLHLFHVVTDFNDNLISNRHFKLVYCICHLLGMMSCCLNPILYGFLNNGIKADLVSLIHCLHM
Test: proximity ligation; Duolink in situ PLA with anti-Y5R and anti-RhoA-GTP antibodies in fixed, permeabilized SK-N-AS cells; serum-free media 24 h, then 10^-8 M NPY for 5, 10 or 20 min, with or without 30-min pre-incubation with 10^-6 M Y5R antagonist

RhoA-GTP (from UniProt P61586 1-193)
binding: binds
